Results are given in words; binding and its absence hold for the method and conditions named. A result given as binding can be weak or reduced; the word gives no strength.

The experiment deals with SAP54^AY-WB (secreted AY-WB protein 54), mature peptide (Aster Yellows strain Witches' Broom (AY-WB) phytoplasma (Ca. Phytoplasma asteris)). In words: two-hybrid; ProQuest Two-Hybrid system, yeast strain MaV203; SAP54 peptides fused to the GAL4 BD (pDEST32), MADS-box TFs and RAD23 proteins or domains fused to the GAL4 AD (pDEST22); growth on SD agar lacking Trp, Leu and His with 20, 25, 60 or 75 mM 3-AT, or lacking Trp, Leu, His and Adenine with 10 mM 3-AT; four independent colonies.

B1: A. thaliana RAD23D (protein, UniProt Q84L30 1-378)
chain: MKIFVKTLSGSNFEIEVKPADKVSDVKTAIETVKGAEYPAAKQMLIHQGKVLKDETTLEENNVVENSFIVIMLSKTKASPSGASTASAPAPSATQPQTVATPQVSAPTASVPVPTSGTATAAAPATAASVQTDVYGQAASNLVAGTTLESTVQQILDMGGGSWDRDTVVRALRAAFNNPERAVEYLYSGIPAQAEIPPVAQAPATGEQAANPLAQPQQAAAPAAATGGPNANPLNLFPQGMPAADAGAGAGNLDFLRNSQQFQALRAMVQANPQILQPMLQELGKQNPQLVRLIQEHQADFLRLINEPVEGEENVMEQLEAAMPQAVTVTPEEREAIERLEGMGFDRAMVLEVFFACNKNEELAANYLLDHMHEFEDQ
As for B1, the binding entry is recorded as “binds”.

B2: UBA2 domain of A. thaliana RAD23C (aa 353-419) (domain or fragment, UniProt Q84L31 353-419)
chain: GNLLGQMAAGMPQPQAIQVTHEEREAIERLEAMGFERALVLEVFFACNKNEELAANYLLDHMHEFEE
Regarding B2, the binding result is given as “binds”.

B3: A. thaliana RAD23A (protein, UniProt Q84L32 1-368)
chain: MKLTVKTLKGSHFEIRVLPTDTIMAVKKNIEDSQSKDNYPCGQQLLIHNGKVLKDETTLVENKVTEEGFLVVMLSKSKTASSAGPSSTQPTSTTTSTISSTTLAAPSTTQSIAVPASNSTPVQEQPTAQSDTYGQAASTLVSGSSIEQMVQQIMEMGGGSWDKETVTRALRAAYNNPERAVDYLYSGIPETVTIPATNLSGVGSGRELTAPPPSGGPNSSPLDLFPQEAVSDAAGGDLGTLEFLRGNDQFQQLRSMVNSNPQILQPMLQELGKQNPQLLRLIQENQAEFLQLLNEPYEGSDGDVDIFDQPDQEMPHSVNVTPEEQESIERLEAMGFDRAIVIEAFLSCDRNEELAANYLLEHSADFED
As to B3, the binding entry is given as “no binding”.

B4: A. thaliana RAD23C (proteasomal shuttle protein) (protein, UniProt Q84L31 1-419)
chain: MKIFVKTLKGTHFEIEVKPEDSVVDVKKNIESVQGADVYPAAKQMLIHQGKVLKDETTIEENKVAENSFIVIMMNKSKPASAAASSASAGTSQAKSIPPSTSQPSISPQTPASVSAPVAPAPTRPPPPAPTPTPAPVAATETVTTPIPEPVPATISSSTPAPDSAPVGSQGDVYGQAASNLAAGSNLESTIQQILDMGGGTWDRETVVLALRAAFNNPERAVEYLYTGIPEQAEVPPVARPPASAGQPANPPAQTQQPAAAPASGPNANPLDLFPQGLPNVGGNPGAGTLDFLRNSQQFQALRAMVQANPQVLQPMLQELGKQNPNLMRLIQDHQADFLRLINEPVEGGGESGNLLGQMAAGMPQPQAIQVTHEEREAIERLEAMGFERALVLEVFFACNKNEELAANYLLDHMHEFEE
As to B4, the binding result was “binds”.

B5: A. thaliana RAD23B (protein, UniProt Q84L33 1-371)
chain: MKLTVKTLKGSHFEIRVLPSDTIMAVKKNIEDSQGKDNYPCGQQLLIHNGKVLKDETSLVENKVTEEGFLVVMLSKSKSGGSAGQASVQTSSVSQPVSATTSSTKPAAPSTTQSSPVPASPIPAQEQPAAQTDTYGQAASTLVSGSSLEQMVQQIMEMGGGSWDKETVTRALRAAYNNPERAVDYLYSGIPQTAEVAVPVPEAQIAGSGAAPVAPASGGPNSSPLDLFPQETVAAAGSGDLGTLEFLRNNDQFQQLRTMVHSNPQILQPMLQELGKQNPQLLRLIQENQAEFLQLVNEPYEGSDGEGDMFDQPEQEMPHAINVTPAEQEAIQRLEAMGFDRALVIEAFLACDRNEELAANYLLENSGDFED
On to B5, for which the binding entry was “no binding”.

These data come from PMC12633904.
